Data as given in article PMC8816926.
No constants are given. Whether binding was seen depends on the method and setting. For some assays here: In cells and extracts the contact can be indirect. Some binding calls cover weakened binding; strength is not graded here.

The chains behind the UniProt entries cited, without tags or fusion partners. Where a name states a change or a piece, a line headed by the entry shows the natural chain unless it says otherwise.
UniProt P56178: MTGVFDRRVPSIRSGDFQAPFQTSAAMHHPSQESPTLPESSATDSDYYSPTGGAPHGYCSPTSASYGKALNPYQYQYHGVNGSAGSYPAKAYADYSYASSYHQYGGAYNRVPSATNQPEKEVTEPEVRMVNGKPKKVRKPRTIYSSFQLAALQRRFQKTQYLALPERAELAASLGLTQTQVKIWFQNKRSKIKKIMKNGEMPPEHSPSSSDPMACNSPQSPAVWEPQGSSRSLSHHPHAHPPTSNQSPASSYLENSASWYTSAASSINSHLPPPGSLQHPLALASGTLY
UniProt O60479: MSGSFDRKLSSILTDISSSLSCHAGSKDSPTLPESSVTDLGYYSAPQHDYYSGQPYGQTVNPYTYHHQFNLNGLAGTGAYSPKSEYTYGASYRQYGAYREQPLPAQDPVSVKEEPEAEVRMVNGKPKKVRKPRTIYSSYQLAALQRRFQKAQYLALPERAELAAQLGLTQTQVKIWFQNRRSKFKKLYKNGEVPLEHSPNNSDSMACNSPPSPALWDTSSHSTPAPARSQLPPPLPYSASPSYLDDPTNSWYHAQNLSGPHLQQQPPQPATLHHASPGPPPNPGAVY
UniProt Q8TDD2: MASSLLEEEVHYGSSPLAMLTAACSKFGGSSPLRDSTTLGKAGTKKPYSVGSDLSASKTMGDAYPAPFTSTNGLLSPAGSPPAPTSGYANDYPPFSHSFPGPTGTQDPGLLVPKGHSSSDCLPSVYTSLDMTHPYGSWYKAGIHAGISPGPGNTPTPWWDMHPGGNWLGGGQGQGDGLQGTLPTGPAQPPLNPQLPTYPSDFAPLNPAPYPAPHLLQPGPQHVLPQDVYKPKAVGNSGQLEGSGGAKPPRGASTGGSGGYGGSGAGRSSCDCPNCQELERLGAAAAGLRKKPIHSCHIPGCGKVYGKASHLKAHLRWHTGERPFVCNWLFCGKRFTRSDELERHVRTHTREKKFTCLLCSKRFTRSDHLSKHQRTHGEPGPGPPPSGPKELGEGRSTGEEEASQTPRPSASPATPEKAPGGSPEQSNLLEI

How the values were obtained:
[1] = target: myc-tagged DLX5 (UniProt P56178); test: native gel or EMSA; 2 ug nuclear extract of transfected HEK293 (SP7 wild-type or mutant and/or DLX5), biotin-labelled AT-rich oligo probe, 12% glycerol; supershift with anti-myc or anti-FLAG; the second shift is read as DLX5-SP7-DNA complex
[2] = target: myc-tagged DLX5 (UniProt P56178); test: co-IP; competition co-IP: HEK293 co-transfected with myc-DLX3 or myc-DLX5 and equal amounts of HA-wild-type SP7 and FLAG-mutant SP7, or vice versa; IP with anti-myc; blots with anti-FLAG and anti-HA
[3] = target: myc-tagged DLX3 (UniProt O60479); test: as above
[4] = target: myc-tagged DLX5 (UniProt P56178); test: oligo co-immunoprecipitation; 200 ug nuclear extract of transfected HEK293, 100 pmol biotinylated AT-rich oligo, streptavidin magnetic particles, 4 C, 2 h; 50 mM KCl, 25 mM HEPES-KOH pH 7.7; western blot; SP7 reaches the oligo through DLX
[5] = target: FLAG-tagged human wild-type SP7 (human) (UniProt Q8TDD2); test: co-IP; HEK293 co-transfected with FLAG-SP7 (wild-type or mutant) and myc-DLX3 or myc-DLX5; 48 h; IP with anti-FLAG (M2) on Dynabeads Protein G; western blot
[6] = target: FLAG-tagged S309W SP7 mutant (human) (UniProt Q8TDD2); test: as above

| binding [2] | binding [3] | binding [5] | Substance | other results |
| --- | --- | --- | --- | --- |
| – | – | binds | myc-tagged DLX5 (from UniProt P56178 1-289) | – |
| – | binds | – | HA-tagged mutant SP7 (S309W) (from UniProt Q8TDD2-1 1-431) | – |
| – | binds | – | FLAG-tagged S309W SP7 mutant (from UniProt Q8TDD2-1 1-431) | – |

The remaining lines, values behind:

| Substance | binding [2] | binding [3] | binding [5] | other results |
| --- | --- | --- | --- | --- |
| FLAG-tagged human wild-type SP7 (from UniProt Q8TDD2-1 1-431) | binds | binds | – | binding [1]: binds; binding [4]: binds |
| myc-tagged DLX3 (from UniProt O60479 1-287) | – | – | binds | binding [6]: binds |
| HA-tagged wild-type SP7 (from UniProt Q8TDD2-1 1-431) | binds | binds | – | – |
